From patent publication US20220106406A1 (UNIVERSITY OF KENTUCKY RESEARCH FOUNDATION, published 2022)
These are yes or no findings as the source states them, for the method shown. Some entries that bind do so weakly or less than the wild type.

Chains of the proteins cited; added tags and fusions are not shown. Lines headed by an entry give the natural chain unless they say otherwise; changes in a name come on top. Residues count along the entry.
UniProt O75365: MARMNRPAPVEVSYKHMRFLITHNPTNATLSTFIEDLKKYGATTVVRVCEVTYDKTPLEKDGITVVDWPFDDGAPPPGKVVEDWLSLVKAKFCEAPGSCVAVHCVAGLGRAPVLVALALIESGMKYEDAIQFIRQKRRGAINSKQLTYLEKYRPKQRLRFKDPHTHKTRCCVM
GFP-PRL-3: residues 1-170 of O75365

Assays:
[1] = molecular target: Recombinant PRL-3 (human) (UniProt O75365); experiment: indirect ELISA, PRL coated, anti-His-HRP detection
[2] = molecular target: Recombinant PRL-3 (human) (UniProt O75365); experiment: indirect ELISA, 100 ng PRL coated, anti-His detection, 450 nm
3×FLAG-PRL-3 (human) = 3×FLAG-PRL-3 (human) (UniProt O75365); experiment: immunoprecipitation from HEK293T lysate with nanobody-coupled Dynabeads, anti-FLAG blot
GFP-PRL-3 = GFP-PRL-3 (UniProt O75365); experiment: immunofluorescence on fixed, permeabilized transfected HCT116 cells
[3] = molecular target: Recombinant PRL-3 (human) (UniProt O75365); experiment: summary of ELISA, immunoprecipitation and immunofluorescence
[4] = molecular target: Recombinant PRL-3 (human) (UniProt O75365); experiment: hydrogen-deuterium exchange

Measured: binding

B1: NB92 (VHH)
VHH: QVQLQESGGGLVHTGGSLILSCAASRSFFIFDVMGWYRQAPGNHREFVTSITNGGNVYYVDSVKGRFNIPKDDSNTTMYLEMNSLKPEDTAVYTCYGQIHKPRVTTSWGQGTQVTVSS
binds: [1] | [2]

B2: NB19 (VHH)
VHH: QVQLQESGGGLVQAGGSLGLSCAASRSIFNFKVMGWYRQAPGKQRELVASITNSDNTYYADSVKGRFTISREDAKTTMYLEMNSLKPEDTAVYRCYGQNWGLRATTYWGQGTQVTVSS
binds: all assays above

B3: NB84 (VHH)
VHH: QVQLQESGGGLVQAGGSLGLSCAASRSIFNFKVMGWYRQAPGKQRELVASITNSDNTYYADSVKGRFTISREDAKTTMYLEMNSLKPEDTTVYRCYGQNWGLRATTYWGQGTQVTVSS
not listed: [4]
binds: all other assays above

B4: NB4 (VHH)
VHH: QVQLQESGGGLVQTGGSLRLSCAASQSTYNFDVMGWYRLAPGKQREFLTSITNGGNIYYADSVKGRFTIARDDSKTTMYLEMNSLKPEDTAVYTCYGQTHKPRVTTSWGQGTQVTVSS
not listed: [4]
binds: all other assays above

B5: NB90 (VHH)
VHH: QVQLQESGGGLVQTGGSLRLSCAASQSTFNFDVMGWYRLAPGKQREFLTSITNGGNIYYADSVKGRFTIARDDSKTTMYLEMNSLKPEDTAVYTCYGQTHKPRVTTSWGQGTQVTVSS
binds: [1] | [2]

B6: NB7 (VHH)
VHH: QVQLQESGGGLVQTGGSLRLSCAASQSTFNFYVLGWYRLAPGKQREFLTSITNGGNIYYADSVKGRFTIARDDSKTTMYLEMNSLKPEDTAVYTCYGQTHKPRVTTSWGQGTQVTVSS
binds: [1] | [2]

B7: NB13 (VHH)
VHH: QVQLQESGGGLVQTGGSLRLSCAASQSTFNFDVMGWYRLAPGKQREFLTSITNGGNIYYADSVKGRFTIARDDSKTTMYLEMNSLKPEDTAVYTCYGQTHKPRVTTSWGQGTQVTVSS
binds: [1] | [2]

B8: NB18 (VHH)
VHH: QVQLQESGGGLVQTGGSLRLSCAASQSTFNFDVMGWYRLAPGKQREFLTSITNGGNIYYADSVKGRFTTARDDSKTTMYLEMNSLKPEDTAVYTCYGQTHKPRVTTSWGQGTQVTVSS
binds: [1] | [2]

B9: NB29 (VHH)
VHH: QVQLQESGGGLVQTGGSLRLSCAASQSTYNFDVMGWYRLAPGKQREFLTSITNGGNIYYADSVKGRFTIARDDSKTTMYLEMNSLKPEDTAVYTCYGQTHKPRVTTSWGQGTQVTVSS
binds: [1] | [2]

B10: NB16 (VHH)
VHH: QVQLQESGGGLVQTGGSLRLSCAASQSTFNFDVMGWYRLAPGKQREFLTSITNGGNIYYADSVKGRFTTARDDSKTTMYLEMNSLKPEDTAVYTCYGQTHKPRVTTSWGQGTQVTVSS
not listed: [4]
binds: all other assays above

B11: NB10 (VHH)
VHH: QVQLQESGGGLVQTGGSLRLSCAASQSTFNFNVMGWYRLAPGKQREFLPSLTNGGNIYYADSVKGRFTIARDDSKTTTYLEMNSLKPEDTAVYTCYGQTHKPRVTTSWGQGTQVTVSS
notes: Alpaca nanobody, C-terminal 6xHis tag intact; also called nanobody 10
not listed: [4]
binds: all other assays above

B12: NB26 (VHH)
VHH: QVQLQESGGGLVQPGGSLKLSCVVTGLHYYTEGWFRQAPGKEREGVSCISSSDGRTDYIDSVKGRFTISEDNDNKTVYLQMNTLKPDDTGVYYCVAERGPRGSTWWETYDYWGQGTHVTVSS
notes: Alpaca nanobody, C-terminal 6xHis tag intact; also called nanobody 26; Nanobody 26
binds: all assays above

B13: NB68 (VHH)
VHH: QVQLQESGGGLVQAGGSLRLSCSASGRTSSMYAMGWFRQAPGKEREFVAGIRWSVGTTSYADSVKGRFTISRDNAENTVYLDMNALKSEDTAMYYCTNDSGRPRSQGTQVTVSS
binds: [1] | [2]
